According to PMC3012730, “The Actinobacillus pleuropneumoniae HMW1C-Like Glycosyltransferase Mediates N-Linked Glycosylation of the Haemophilus influenzae HMW1 Adhesin” (PLoS ONE, 2010):
Results are given in words; binding and its absence hold for the method and conditions named. Tags and fused reporters may be left off the sequences shown.

Molecular target: Actinobacillus pleuropneumoniae HMW1C-like glycosyltransferase (ApHMW1C), His-tagged (Actinobacillus pleuropneumoniae) (UniProt A3N2T3)
Assay: SEC; analytical gel filtration of purified ApHMW1C; standards aldolase 158 kDa, conalbumin 75 kDa, ovalbumin 43 kDa; calculated molecular weight ~70 kDa; both purified

B1: Actinobacillus pleuropneumoniae HMW1C-like glycosyltransferase (ApHMW1C), His-tagged (enzyme, UniProt A3N2T3 1-620)
chain: MENENKPNVANFEAAVAAKDYEKACSELLLILSQLDSNFGGIHEIEFEYPAQLQDLEQEKIVYFCTRMATAITTLFSDPVLEISDLGVQRFLVYQRWLALIFASSPFVNADHILQTYNREPNRKNSLEIHLDSSKSSLIKFCILYLPESNVNLNLDVMWNISPELCASLCFALQSPRFVGTSTAFNKRATILQWFPRHLDQLKNLNNIPSAISHDVYMHCSYDTSVNKHDVKRALNHVIRRHIESEYGWKDRDVAHIGYRNNKPVMVVLLEHFHSAHSIYRTHSTSMIAAREHFYLIGLGSPSVDQAGQEVFDEFHLVAGDNMKQKLEFIRSVCESNGAAIFYMPSIGMDMTTIFASNTRLAPIQAIALGHPATTHSDFIEYVIVEDDYVGSEECFSETLLRLPKDALPYVPSALAPEKVDYLLRENPEVVNIGIASTTMKLNPYFLEALKAIRDRAKVKVHFHFALGQSNGITHPYVERFIKSYLGDSATAHPHSPYHQYLRILHNCDMMVNPFPFGNTNGIIDMVTLGLVGVCKTGAEVHEHIDEGLFKRLGLPEWLIANTVDEYVERAVRLAENHQERLELRRYIIENNGLNTLFTGDPRPMGQVFLEKLNAFLKEN
  binding: no binding
